These are yes or no findings as the source states them, for the method shown. In cells and extracts the contact can be indirect. Some results given as binding are weak or reduced against the parent protein; the word gives no strength. Tags and fused reporters may be left off the sequences shown.

One experiment has as its target T1, p63 (human) (UniProt Q9H3D4).
T1 sequence (looked up): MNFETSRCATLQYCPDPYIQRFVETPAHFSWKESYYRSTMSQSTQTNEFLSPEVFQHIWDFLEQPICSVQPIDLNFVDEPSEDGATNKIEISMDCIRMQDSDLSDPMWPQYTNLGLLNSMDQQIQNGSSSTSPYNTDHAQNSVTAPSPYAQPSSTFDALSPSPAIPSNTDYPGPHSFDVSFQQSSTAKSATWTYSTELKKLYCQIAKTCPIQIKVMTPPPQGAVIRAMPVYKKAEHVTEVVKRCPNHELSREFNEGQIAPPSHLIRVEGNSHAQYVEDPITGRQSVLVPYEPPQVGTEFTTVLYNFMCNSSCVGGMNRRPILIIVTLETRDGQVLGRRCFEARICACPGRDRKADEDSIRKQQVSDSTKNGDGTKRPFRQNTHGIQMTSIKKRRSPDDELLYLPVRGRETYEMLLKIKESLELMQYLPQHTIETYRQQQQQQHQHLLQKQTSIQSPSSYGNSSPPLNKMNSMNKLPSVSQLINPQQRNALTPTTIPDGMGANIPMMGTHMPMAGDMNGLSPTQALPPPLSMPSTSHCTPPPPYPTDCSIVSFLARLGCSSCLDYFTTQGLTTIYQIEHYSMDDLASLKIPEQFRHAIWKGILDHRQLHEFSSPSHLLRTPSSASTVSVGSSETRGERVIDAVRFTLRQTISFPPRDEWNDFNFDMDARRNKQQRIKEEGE
Nature of the experiment: co-immunoprecipitation (data not shown).

A further experiment addresses T2, HA-TAp73α (human) (UniProt O15350).
T2 sequence (looked up): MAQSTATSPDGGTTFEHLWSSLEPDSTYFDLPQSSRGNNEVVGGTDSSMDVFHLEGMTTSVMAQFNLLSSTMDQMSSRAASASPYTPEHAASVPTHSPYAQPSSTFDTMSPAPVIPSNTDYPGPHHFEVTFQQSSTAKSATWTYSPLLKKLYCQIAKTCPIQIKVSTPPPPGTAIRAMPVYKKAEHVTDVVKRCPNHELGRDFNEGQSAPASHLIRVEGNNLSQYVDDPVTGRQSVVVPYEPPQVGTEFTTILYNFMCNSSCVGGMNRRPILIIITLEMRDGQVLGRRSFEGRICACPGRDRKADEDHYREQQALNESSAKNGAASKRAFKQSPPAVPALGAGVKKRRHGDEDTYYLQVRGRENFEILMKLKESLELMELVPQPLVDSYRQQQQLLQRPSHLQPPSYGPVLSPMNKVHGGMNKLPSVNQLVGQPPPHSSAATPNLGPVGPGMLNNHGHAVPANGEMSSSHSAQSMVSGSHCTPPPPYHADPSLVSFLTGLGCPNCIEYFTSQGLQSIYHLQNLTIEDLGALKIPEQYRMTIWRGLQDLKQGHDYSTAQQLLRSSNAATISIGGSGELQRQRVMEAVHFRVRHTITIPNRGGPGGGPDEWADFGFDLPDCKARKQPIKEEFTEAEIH
Nature of the experiment: co-immunoprecipitation with anti-GFP antibody from co-transfected H1299 cells, Western Blot with anti-HA.

As to AKYCQCAAKVRVTAAM (designed binder, not shown: large carriers; small tags and cut ends) [EGFP-TNV-A3], the binding entry with p63 (human) and with HA-TAp73α (human) was “binds” in each case.

Consider GPVVPRTQYMSLAFGW (designed binder, not shown: large carriers; small tags and cut ends) [EGFP-TNV-A29], for which the binding result with p63 (human) and in the experiment with HA-TAp73α (human) was “binds” throughout.

Take IQITLTGWSARVTTSG (designed binder, not shown: large carriers; small tags and cut ends) [EGFP-TNV-A60]: the binding result with p63 (human) and with HA-TAp73α (human) was “binds” throughout.

DVADWESCGEYWCYRV (designed binder, not shown: large carriers; small tags and cut ends) [EGFP-TNV-sA79]: the binding result with p63 (human) and with HA-TAp73α (human) was “binds” in each case.

In the case of VWAESCDDCGEYWRYV (designed binder, not shown: large carriers; small tags and cut ends) [EGFP-TNV-A79], the binding entry with p63 (human) and with HA-TAp73α (human) was “binds” throughout.

Source of the values: patent publication US20120258920A1.
